Data reported in US20130197189A1 (The Regents of the University of Colorado, A Body Corporate, priority 2010, published 2013).

Assay: general procedure: Fmoc solid-phase peptide synthesis; Rink Amide MBHA resin (~0.5 mmol/g); HBTU/NMM
Conditions: whole synthesis, scale of the general procedure 0.50 mmol, 0.25-0.5 mmol

Q: For H-CGGRGDS-NH2, which isolated yield is on record?
A: 82%
